From the supplement of paper PMC3334620
Whole data set: some 33,000 sequences, median “E-score (-0.5 to 0.5)” near -0.015, cut for the highest 2% near 0.3. This is one part of the list.

biological target: T1, Abf1 (UniProt P14164); assay: PBM E-score (8-mer binding enrichment) (E-score (-0.5 to 0.5)); higher = stronger / more preferred TF binding; settings: protein concentration: 200 nM; construct: GST-full length
T1 sequence: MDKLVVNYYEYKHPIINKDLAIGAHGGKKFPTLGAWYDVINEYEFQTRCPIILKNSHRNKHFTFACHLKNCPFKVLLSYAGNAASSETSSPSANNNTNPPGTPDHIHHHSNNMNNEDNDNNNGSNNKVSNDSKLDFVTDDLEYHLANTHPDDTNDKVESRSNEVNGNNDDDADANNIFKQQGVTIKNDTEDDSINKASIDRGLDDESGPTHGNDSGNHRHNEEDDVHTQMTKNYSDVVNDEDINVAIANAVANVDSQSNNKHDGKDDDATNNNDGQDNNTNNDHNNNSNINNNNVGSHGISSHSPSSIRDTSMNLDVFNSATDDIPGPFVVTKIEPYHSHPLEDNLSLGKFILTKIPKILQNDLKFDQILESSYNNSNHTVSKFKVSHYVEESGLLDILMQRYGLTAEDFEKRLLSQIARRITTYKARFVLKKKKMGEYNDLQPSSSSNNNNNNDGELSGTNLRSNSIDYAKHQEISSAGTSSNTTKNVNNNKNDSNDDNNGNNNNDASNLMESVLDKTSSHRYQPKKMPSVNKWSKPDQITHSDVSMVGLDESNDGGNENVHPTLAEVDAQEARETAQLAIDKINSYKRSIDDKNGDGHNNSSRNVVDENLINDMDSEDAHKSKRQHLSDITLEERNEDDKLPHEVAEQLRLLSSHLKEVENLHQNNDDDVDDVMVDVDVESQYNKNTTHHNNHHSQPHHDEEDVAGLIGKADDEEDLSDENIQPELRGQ
Method in brief: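 Each ungapped eight-base word and its reverse complement, pooled, received an E-score from the Universal PBM Analysis Suite. Underlying scans, normalised with masliner, recorded fluorescent anti-GST bound to GST-tagged yeast transcription factors. These were applied at about 100-200 nM to universal all-10-mer Agilent arrays double-stranded by primer extension.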

Q: For ATAGGCAC, which “PBM E-score” value is on record?
A: -0.0788

Q: With AGCGGTAA as the sequence, how does the “PBM E-score” value read?
A: -0.158

Q: How did the “PBM E-score” value turn out when AATGCATA was run?
A: -0.0219

Q: Which “PBM E-score” value does the source give for AATAAAGA here?
A: 0.107

Q: For ACAATAGG, which “PBM E-score” value is on record?
A: 0.0552

Q: For ACCAGAGG, which “PBM E-score” value is on record?
A: -0.159

Q: With CAAACCGA as the sequence, how does the “PBM E-score” value read?
A: -0.0466

Q: Which “PBM E-score” value does the source give for GTGAAGGA here?
A: -0.0425

Q: Which “PBM E-score” value does the source give for CACAGCCC here?
A: -0.053

Q: How did the “PBM E-score” value turn out when ACGAAAAT was run?
A: 0.23

Q: How did the “PBM E-score” value turn out when AAAAATTT was run?
A: 0.096

Q: With GCAAAGAA as the sequence, how does the “PBM E-score” value read?
A: -0.0502

Q: With ATGAACAC as the sequence, how does the “PBM E-score” value read?
A: -0.0889

Q: How did the “PBM E-score” value turn out when GAGCGAGC was run?
A: 0.0315

Q: ATACGATG was tested. Which “PBM E-score” value did it give?
A: 0.261

Q: Which “PBM E-score” value does the source give for AGGGCAAG here?
A: -0.257

Q: GCTTCGCA was tested. Which “PBM E-score” value did it give?
A: -0.0402

Q: AACAGGGG was tested. Which “PBM E-score” value did it give?
A: -0.141

Q: ACTTCAAG was tested. Which “PBM E-score” value did it give?
A: 0.0326

Q: Which “PBM E-score” value does the source give for ACTGTCTA here?
A: 0.0447

Q: ACGTATGG was tested. Which “PBM E-score” value did it give?
A: 0.136

Q: AATTTCGT was tested. Which “PBM E-score” value did it give?
A: 0.36

Q: AGATAAAA was tested. Which “PBM E-score” value did it give?
A: 0.0636

Q: With GACACATA as the sequence, how does the “PBM E-score” value read?
A: 0.00018

Q: AGGAACTC was tested. Which “PBM E-score” value did it give?
A: -0.126

Q: How did the “PBM E-score” value turn out when AGTAACGA was run?
A: 0.137

Q: With AAGGTAGT as the sequence, how does the “PBM E-score” value read?
A: -0.0911

Q: For AACGCAGC, which “PBM E-score” value is on record?
A: -0.00127

Q: Which “PBM E-score” value does the source give for CGCTTGAG here?
A: -0.111

Q: How did the “PBM E-score” value turn out when AAGCGACA was run?
A: 0.274

Q: CACTCACA was tested. Which “PBM E-score” value did it give?
A: -0.0755

Q: Which “PBM E-score” value does the source give for AGGTCCAT here?
A: 0.163

Q: For TCGCTAAA, which “PBM E-score” value is on record?
A: 0.111

Q: How did the “PBM E-score” value turn out when ACTGTTCA was run?
A: -0.194

Q: With AATCGCCG as the sequence, how does the “PBM E-score” value read?
A: 0.00959

Q: How did the “PBM E-score” value turn out when GCCGGTGA was run?
A: 0.101

Q: With CACCGTCC as the sequence, how does the “PBM E-score” value read?
A: 0.0367

Q: With CGATATCA as the sequence, how does the “PBM E-score” value read?
A: 0.363

Q: With AGGCCGCA as the sequence, how does the “PBM E-score” value read?
A: 0.00271

Q: How did the “PBM E-score” value turn out when ATTATATA was run?
A: 0.181

Q: CCGACACA was tested. Which “PBM E-score” value did it give?
A: -0.104

Q: CCCCATGA was tested. Which “PBM E-score” value did it give?
A: -0.167

Q: For AGAAAACG, which “PBM E-score” value is on record?
A: 0.0425

Q: How did the “PBM E-score” value turn out when GGACTCCA was run?
A: -0.208

Q: CCATCAAG was tested. Which “PBM E-score” value did it give?
A: -0.205

Q: Which “PBM E-score” value does the source give for ACCATCCA here?
A: -0.194

Q: How did the “PBM E-score” value turn out when GGCAAACC was run?
A: -0.197

Q: For AGCGTTCA, which “PBM E-score” value is on record?
A: -0.274

Q: Which “PBM E-score” value does the source give for TAACCTCA here?
A: 0.0508

Q: With GCGGTGAA as the sequence, how does the “PBM E-score” value read?
A: -0.0455

Q: AAATCTGA was tested. Which “PBM E-score” value did it give?
A: 0.124

Q: For AGCTATGA, which “PBM E-score” value is on record?
A: -0.0571

Q: Which “PBM E-score” value does the source give for CATCGGAC here?
A: 0.0677

Q: For CACGTATA, which “PBM E-score” value is on record?
A: 0.128

Q: With ATTAAGCG as the sequence, how does the “PBM E-score” value read?
A: 0.104

Q: Which “PBM E-score” value does the source give for CCTGGGCA here?
A: -0.356

Q: ACGTCTAT was tested. Which “PBM E-score” value did it give?
A: -0.00494

Q: With CGTCCGGA as the sequence, how does the “PBM E-score” value read?
A: 0.0767

Q: With CATACCTC as the sequence, how does the “PBM E-score” value read?
A: -0.0103

Q: ACTCATCC was tested. Which “PBM E-score” value did it give?
A: 0.227

Q: How did the “PBM E-score” value turn out when GCTACGAA was run?
A: 0.188

Q: ATGATTGG was tested. Which “PBM E-score” value did it give?
A: -0.094

Q: AAACAGCC was tested. Which “PBM E-score” value did it give?
A: -0.356

Q: For ATCAGGCA, which “PBM E-score” value is on record?
A: 0.0459

Q: ACCTCTCT was tested. Which “PBM E-score” value did it give?
A: -0.24

Q: AGCCTGAC was tested. Which “PBM E-score” value did it give?
A: -0.158

Q: For GCATGTAA, which “PBM E-score” value is on record?
A: -0.0648

Q: Which “PBM E-score” value does the source give for ACTAAAGC here?
A: -0.0308

Q: AAAGCGTA was tested. Which “PBM E-score” value did it give?
A: -0.13

Q: For GCACGATA, which “PBM E-score” value is on record?
A: 0.355

Q: How did the “PBM E-score” value turn out when CAATCTGG was run?
A: -0.128

Q: CACATTAA was tested. Which “PBM E-score” value did it give?
A: -0.068

Q: How did the “PBM E-score” value turn out when TAGATCAA was run?
A: 0.16

Q: Which “PBM E-score” value does the source give for AAAGTGAT here?
A: 0.397

Q: With GACCCACC as the sequence, how does the “PBM E-score” value read?
A: -0.216

Q: For AACGCTCC, which “PBM E-score” value is on record?
A: -0.0663

Q: How did the “PBM E-score” value turn out when GATACCCA was run?
A: 0.107

Q: Which “PBM E-score” value does the source give for ACAAGGGT here?
A: -0.145

Q: With ACATGGGT as the sequence, how does the “PBM E-score” value read?
A: 0.102

Q: CTGACCGC was tested. Which “PBM E-score” value did it give?
A: -0.15

Q: With AAGGATAG as the sequence, how does the “PBM E-score” value read?
A: -0.154

Q: With TCATAGGA as the sequence, how does the “PBM E-score” value read?
A: 0.162

Q: For GGAACTCA, which “PBM E-score” value is on record?
A: -0.259

Q: TCATGGAA was tested. Which “PBM E-score” value did it give?
A: -0.0402

Q: How did the “PBM E-score” value turn out when AGTAGCAC was run?
A: -0.136

Q: For ACGAACGC, which “PBM E-score” value is on record?
A: 0.214
